Reference: the supplement of paper PMC3334620
Over roughly 33,000 sequences, “E-score (-0.5 to 0.5)” has its median near -0.015; the highest 2% begin near 0.3. The list shows a part of the results.

biological target: T1, Abf1 (UniProt P14164); assay: PBM E-score (8-mer binding enrichment) (E-score (-0.5 to 0.5)); higher = stronger / more preferred TF binding; conditions: protein concentration: 200 nM; construct: GST-full length
T1 sequence: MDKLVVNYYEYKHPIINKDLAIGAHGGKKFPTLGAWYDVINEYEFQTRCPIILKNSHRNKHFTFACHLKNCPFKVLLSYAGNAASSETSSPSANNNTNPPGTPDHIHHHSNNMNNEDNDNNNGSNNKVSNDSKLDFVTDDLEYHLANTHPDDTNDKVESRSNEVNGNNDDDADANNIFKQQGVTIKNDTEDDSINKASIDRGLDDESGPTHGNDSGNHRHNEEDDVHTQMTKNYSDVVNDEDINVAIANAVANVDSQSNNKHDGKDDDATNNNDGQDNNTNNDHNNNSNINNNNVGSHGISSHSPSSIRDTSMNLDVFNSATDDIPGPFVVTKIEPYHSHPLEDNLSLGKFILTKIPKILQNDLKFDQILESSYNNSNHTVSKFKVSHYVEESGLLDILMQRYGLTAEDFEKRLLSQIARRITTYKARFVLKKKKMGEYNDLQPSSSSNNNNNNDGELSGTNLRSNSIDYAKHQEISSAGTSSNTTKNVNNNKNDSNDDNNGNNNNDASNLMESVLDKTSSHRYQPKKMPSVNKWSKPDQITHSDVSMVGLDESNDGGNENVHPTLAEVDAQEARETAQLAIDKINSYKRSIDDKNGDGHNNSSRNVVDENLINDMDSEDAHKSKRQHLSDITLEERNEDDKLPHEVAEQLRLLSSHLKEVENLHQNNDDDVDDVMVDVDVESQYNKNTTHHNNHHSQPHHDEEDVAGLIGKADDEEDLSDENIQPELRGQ
How it was run: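 For each ungapped eight-base word taken together with its reverse complement, the Universal PBM Analysis Suite assigned an E-score. Binding data came from GST-tagged yeast transcription factors, applied at about 100-200 nM, on universal all-10-mer Agilent arrays made double-stranded by primer extension. Fluorescent anti-GST marked bound protein, and scans were normalised with masliner.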

Row | Sequence | PBM E-score
1 | ATTTTTCC | 0.114
2 | CTGGAAGA | -0.0285
3 | AACCCCAG | -0.118
4 | AACTGCGA | -0.0488
5 | AAACCGGG | -0.12
6 | CCAACGCC | -0.201
7 | ATTGCAAC | -0.11
8 | TCATTCGA | 0.129
9 | TAGATAGA | 0.00508
10 | CAAGCTGG | -0.16
11 | AGGGATAG | -0.0712
12 | AGATCGGC | -0.101
13 | CTAGTTCA | -0.0287
14 | GCGCGTAA | -0.0789
15 | ATTTAGAC | 0.143
16 | AGATGTAG | 0.053
17 | CTTTTTGC | -0.101
18 | AGTCACAC | -0.142
19 | TACTGATA | 0.143
20 | AAAGGCCT | -0.0779
21 | GCAGCGTA | -0.158
22 | AAAGAACC | -0.233
23 | CTGACCGA | -0.173
24 | GCTCTCCA | -0.227
25 | AACTTTCA | 0.1

Row | Sequence | PBM E-score
26 | CGATTCAC | 0.192
27 | AAGAAGCG | -0.0981
28 | AGTCTTGA | -0.0571
29 | AACTGGAC | -0.0466
30 | ATACGCAA | 0.142
31 | ACTGGGGA | -0.204
32 | AGGACACG | -0.0106
33 | AATTATCA | 0.34
34 | CCGGGCTC | -0.278
35 | ACGCCAAG | -0.223
36 | AATAAGCA | 0.12
37 | GAACGAGC | 0.168
38 | AGGGTCGC | 0.0316
39 | GCGGGAAC | -0.0488
40 | GACTGCGA | -0.206
41 | AACCTCCA | -0.22
42 | GATGGTGA | 0.0135
43 | CCCACCAC | -0.156
44 | GAGTGACA | 0.432
45 | GAGGACTA | -0.218
46 | ATCTACCA | -0.0237
47 | ACCGCCTG | -0.184
48 | CACGAACG | 0.372
49 | CGCTGGAG | -0.155
50 | CTAACGTC | 0.18

Row | Sequence | PBM E-score
51 | ATGCCTAA | -0.131
52 | CGAATCTC | -0.071
53 | AGCCAAAC | -0.00711
54 | ATACTAAA | 0.16
55 | ATCGTGAG | 0.223
56 | CGCGTCAA | -0.0482
57 | GGCTTTAA | -0.0881
58 | CAATCGGG | -0.0709
59 | CTGCGTCC | -0.269
60 | GAGATCTC | 0.0386
61 | GGCATTAC | 0.0323
62 | TAGAGACA | 0.00944
63 | AGCAAATG | 0.0179
64 | ATCCTGTA | 0.0698
65 | AGATGAGC | 0.136
66 | TATGTAGA | -0.0892
67 | CACGAGGA | 0.236
68 | CCGAGCTA | -0.0288
69 | CATGCAAG | -0.285
70 | ATATTTAC | 0.162
71 | GAGTCATA | -0.0654
72 | GGAACGGA | -0.0218
73 | AAAAGTGA | 0.292
74 | ATGGTGGC | -0.387
75 | GGAATATA | 0.0497

A run of entries from further up:
Row | Sequence | PBM E-score
10 | CAAGCTGG | -0.16
11 | AGGGATAG | -0.0712
12 | AGATCGGC | -0.101
13 | CTAGTTCA | -0.0287
14 | GCGCGTAA | -0.0789
15 | ATTTAGAC | 0.143
16 | AGATGTAG | 0.053
17 | CTTTTTGC | -0.101
18 | AGTCACAC | -0.142
19 | TACTGATA | 0.143
20 | AAAGGCCT | -0.0779
21 | GCAGCGTA | -0.158
22 | AAAGAACC | -0.233
23 | CTGACCGA | -0.173
24 | GCTCTCCA | -0.227
25 | AACTTTCA | 0.1
26 | CGATTCAC | 0.192
27 | AAGAAGCG | -0.0981
28 | AGTCTTGA | -0.0571
29 | AACTGGAC | -0.0466
30 | ATACGCAA | 0.142
31 | ACTGGGGA | -0.204
32 | AGGACACG | -0.0106
33 | AATTATCA | 0.34
34 | CCGGGCTC | -0.278
35 | ACGCCAAG | -0.223
36 | AATAAGCA | 0.12
37 | GAACGAGC | 0.168
38 | AGGGTCGC | 0.0316
39 | GCGGGAAC | -0.0488
40 | GACTGCGA | -0.206
41 | AACCTCCA | -0.22
42 | GATGGTGA | 0.0135
43 | CCCACCAC | -0.156
44 | GAGTGACA | 0.432
45 | GAGGACTA | -0.218
46 | ATCTACCA | -0.0237
47 | ACCGCCTG | -0.184
48 | CACGAACG | 0.372
49 | CGCTGGAG | -0.155
50 | CTAACGTC | 0.18
51 | ATGCCTAA | -0.131
52 | CGAATCTC | -0.071
53 | AGCCAAAC | -0.00711
54 | ATACTAAA | 0.16

(list continues)

Row | Sequence | PBM E-score
76 | CTACAGAG | -0.111
77 | CGCCTACA | -0.119
78 | AGTAACAA | 0.0354
79 | GCACGCAA | -0.164
80 | CGCCTAGC | -0.292
81 | GGTAGTTA | 0.00521
82 | ACGCTGGG | -0.254
83 | CGGCGGGC | -0.0559
84 | GTGATTCA | 0.168
85 | CGATGGAG | 0.111
86 | CGTAATTA | 0.182
87 | CAGATCAC | 0.284
88 | CGTACGAC | 0.417
89 | GGAGTCGA | -0.16
90 | ATGGACGG | 0.227
91 | ACTGGGAT | 0.0496
92 | AGGCAAGG | -0.171
93 | CGGCAGGC | -0.0216
94 | ACATATAC | 0.0202
95 | GGCTGCGA | -0.0617
96 | AGCTAAAG | -0.0956
97 | CAGTCCGC | -0.192
98 | CACCGTGG | 0.0343
99 | ACTACGTG | -0.143
100 | AAACCTTA | 0.042

Row | Sequence | PBM E-score
101 | AAACTATA | 0.153
102 | CATCAAAG | -0.131
103 | ACGACGCC | 0.273
104 | ATGCGAGA | 0.144
105 | CAAATACC | -0.128
106 | CCGCTGCC | -0.12
107 | ACGCCAGC | -0.0567
108 | TAGCCTCA | -0.161
109 | CTCAATCC | 0.00088
110 | GGCGACTA | -0.103
111 | CGCTTGCA | -0.0575
112 | CGCCGCAG | -0.109
113 | CTCCCCTA | -0.0351
114 | ATTTTACA | 0.0107
115 | CTTCGTGC | 0.271
116 | AGGGCGTC | 0.0427
117 | CAACGGAC | -0.12
118 | ATGGGCCC | -0.253
119 | AAAGAATA | 0.099
120 | GTCCTCTA | -0.201
121 | AGACTTCA | -0.0675
122 | AATAAGAA | 0.141
123 | TCCCGACA | 0.0195
124 | CGATTCAG | -0.0523
125 | GCTGTCTA | 0.00379

Row | Sequence | PBM E-score
126 | CCATTAGC | -0.185
127 | AATTGGTA | 0.146
128 | CACTGAAG | -0.112
129 | CGGGCCTC | -0.193
130 | CGAGTTAA | 0.218
131 | CAAGGTCG | -0.172
132 | AAGAGTCT | -0.254
133 | CTTCAGCC | -0.139
134 | ACGTAGCG | 0.208
135 | ACGACAAA | 0.369
136 | AAAACACC | 0.0509
137 | AGTCGATC | -0.158
138 | TCCTAACA | 0.12
139 | AGCAGGCA | -0.114
140 | TACCACAA | -0.0282
141 | AAGTGAAG | -0.0276
142 | AAACGGCT | -0.131
143 | ACTATCAT | 0.184
144 | ATGGAGTG | -0.187
145 | TCAATCAA | 0.113
146 | AGGTTAGA | -0.252
147 | AGTTCACA | -0.053
148 | CTTTTCCA | -0.25
149 | AGTACTCG | 0.0742
150 | ACTCCGCT | -0.249

Row | Sequence | PBM E-score
151 | CGCCAGGC | -0.189
152 | ATCCCCCC | -0.365
153 | ACCGCAAC | -0.0637
154 | CGTATATC | 0.255
155 | CGTGCCTA | 0.00273
156 | CTCAGGCC | -0.284
157 | GGGTCGTA | 0.0897
158 | GACACGAA | 0.172
159 | GAATCAAC | 0.0931
160 | AGCTCTAG | 0.0626
161 | CATGGGTC | -0.137
162 | TACGTGCA | -0.0879
163 | CACATCAA | 0.177
164 | GACTCCCA | -0.167
165 | GCGTTATA | 0.0304
166 | AGAAGGAT | -0.0175
167 | CCTTGAAG | -0.111
168 | ACCCCATA | -0.124
169 | TAGGGGAA | -0.0804
170 | ACAGTCCC | -0.265
171 | GCCATTAA | 0.0468
172 | CCGAATCA | -0.044
